Test results as given in publication PMC12405659.

By UniProt entry, the sequences of proteins in these tests, tags left out. Residues count along the entry.
UniProt Q9Y5F8, residues 31-929: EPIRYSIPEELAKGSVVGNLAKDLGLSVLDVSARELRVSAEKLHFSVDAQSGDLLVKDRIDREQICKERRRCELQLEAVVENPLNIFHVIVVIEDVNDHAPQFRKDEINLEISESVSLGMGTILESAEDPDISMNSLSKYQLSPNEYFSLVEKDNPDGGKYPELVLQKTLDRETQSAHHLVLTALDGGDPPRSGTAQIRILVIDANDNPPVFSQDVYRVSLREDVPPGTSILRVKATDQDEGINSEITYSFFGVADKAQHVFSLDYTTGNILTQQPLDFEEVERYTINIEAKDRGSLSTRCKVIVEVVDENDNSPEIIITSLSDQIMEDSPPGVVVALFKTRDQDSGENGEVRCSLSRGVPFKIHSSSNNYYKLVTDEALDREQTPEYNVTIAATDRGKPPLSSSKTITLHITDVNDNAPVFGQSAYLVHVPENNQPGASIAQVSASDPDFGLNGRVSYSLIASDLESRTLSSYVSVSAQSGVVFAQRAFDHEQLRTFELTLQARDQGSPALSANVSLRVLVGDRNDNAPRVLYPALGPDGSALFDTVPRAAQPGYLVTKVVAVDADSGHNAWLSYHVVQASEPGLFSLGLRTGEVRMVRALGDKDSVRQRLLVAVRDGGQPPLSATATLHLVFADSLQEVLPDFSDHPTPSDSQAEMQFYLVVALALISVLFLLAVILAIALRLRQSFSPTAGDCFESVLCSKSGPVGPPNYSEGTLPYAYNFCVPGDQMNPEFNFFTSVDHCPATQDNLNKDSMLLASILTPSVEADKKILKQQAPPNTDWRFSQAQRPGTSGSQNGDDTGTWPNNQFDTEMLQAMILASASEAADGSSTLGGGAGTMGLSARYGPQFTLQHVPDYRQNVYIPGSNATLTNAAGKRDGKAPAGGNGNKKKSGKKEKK
UniProt P13010: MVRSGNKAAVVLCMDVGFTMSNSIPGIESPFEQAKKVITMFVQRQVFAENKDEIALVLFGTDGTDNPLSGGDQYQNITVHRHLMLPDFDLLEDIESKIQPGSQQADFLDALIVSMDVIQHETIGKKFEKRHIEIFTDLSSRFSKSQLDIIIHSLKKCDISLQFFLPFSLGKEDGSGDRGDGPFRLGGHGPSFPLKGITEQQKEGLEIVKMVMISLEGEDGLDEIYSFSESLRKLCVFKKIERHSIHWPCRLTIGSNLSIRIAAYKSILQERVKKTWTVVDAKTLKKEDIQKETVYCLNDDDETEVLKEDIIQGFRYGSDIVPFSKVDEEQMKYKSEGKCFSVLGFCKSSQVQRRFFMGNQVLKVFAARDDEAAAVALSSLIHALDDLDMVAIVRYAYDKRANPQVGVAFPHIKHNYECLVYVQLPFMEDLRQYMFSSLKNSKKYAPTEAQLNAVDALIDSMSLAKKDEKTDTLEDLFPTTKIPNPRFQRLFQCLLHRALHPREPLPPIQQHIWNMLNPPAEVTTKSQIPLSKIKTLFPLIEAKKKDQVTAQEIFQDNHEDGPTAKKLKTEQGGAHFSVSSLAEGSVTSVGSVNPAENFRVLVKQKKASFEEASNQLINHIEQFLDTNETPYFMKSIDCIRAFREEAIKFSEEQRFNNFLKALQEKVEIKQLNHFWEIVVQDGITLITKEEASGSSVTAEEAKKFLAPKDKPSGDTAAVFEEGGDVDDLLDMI

Target: PCDHGB7-flag (UniProt Q9Y5F8)
Test: affinity purification with mass spectrometry; co-IP followed by MS (LC-MS/MS, timsTOF Pro 2) to identify the proteins that interacted with PCDHGB7 in TNBC cells

Substance: x‐ray repair cross‐complementary 5 (XRCC5) (from UniProt P13010 1-732)
- binding: binds

Results are given in words; binding and its absence hold for the method and conditions named. Binding seen in cells or lysates may run through a third protein. A yes stands for co-enrichment or nearness to the bait. Other partners may have been found.
